Experiment [1] deals with T1, NET3C-Cub (Arabidopsis thaliana) (UniProt O82259).
T1 sequence: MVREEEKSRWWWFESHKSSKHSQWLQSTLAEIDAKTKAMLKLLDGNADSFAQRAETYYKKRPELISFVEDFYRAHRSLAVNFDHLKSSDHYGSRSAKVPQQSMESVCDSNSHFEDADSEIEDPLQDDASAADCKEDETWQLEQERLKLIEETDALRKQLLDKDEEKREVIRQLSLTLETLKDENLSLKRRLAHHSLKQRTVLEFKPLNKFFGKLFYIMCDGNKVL
Description: two-hybrid.

Protein sequences, listed by entry. Tags and fused reporters are not part of them.
UniProt O04157: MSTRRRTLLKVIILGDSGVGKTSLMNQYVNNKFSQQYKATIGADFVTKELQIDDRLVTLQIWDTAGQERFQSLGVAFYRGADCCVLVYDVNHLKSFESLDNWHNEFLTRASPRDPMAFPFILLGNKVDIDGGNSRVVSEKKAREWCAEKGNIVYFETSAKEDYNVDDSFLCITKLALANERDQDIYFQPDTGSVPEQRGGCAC

Experiment [2] deals with T2, NET4B-Cub (Arabidopsis thaliana) (UniProt Q84VY2).
T2 sequence: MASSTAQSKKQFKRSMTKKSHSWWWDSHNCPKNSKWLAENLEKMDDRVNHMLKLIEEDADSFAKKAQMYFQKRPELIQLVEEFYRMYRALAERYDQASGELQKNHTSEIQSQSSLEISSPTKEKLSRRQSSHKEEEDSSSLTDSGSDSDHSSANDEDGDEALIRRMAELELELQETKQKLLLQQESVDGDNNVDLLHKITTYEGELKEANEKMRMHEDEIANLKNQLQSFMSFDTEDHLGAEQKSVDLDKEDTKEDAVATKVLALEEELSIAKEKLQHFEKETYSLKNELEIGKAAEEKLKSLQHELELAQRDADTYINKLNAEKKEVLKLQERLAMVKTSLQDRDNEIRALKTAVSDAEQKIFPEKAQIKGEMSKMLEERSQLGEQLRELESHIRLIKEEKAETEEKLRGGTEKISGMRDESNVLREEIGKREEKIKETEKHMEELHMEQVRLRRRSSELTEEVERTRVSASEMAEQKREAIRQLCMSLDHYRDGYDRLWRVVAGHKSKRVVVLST
Description: two-hybrid.

Experiment [3] concerns the target T3, NET3A-Cub (Arabidopsis thaliana) (UniProt Q66GR8).
T3 sequence: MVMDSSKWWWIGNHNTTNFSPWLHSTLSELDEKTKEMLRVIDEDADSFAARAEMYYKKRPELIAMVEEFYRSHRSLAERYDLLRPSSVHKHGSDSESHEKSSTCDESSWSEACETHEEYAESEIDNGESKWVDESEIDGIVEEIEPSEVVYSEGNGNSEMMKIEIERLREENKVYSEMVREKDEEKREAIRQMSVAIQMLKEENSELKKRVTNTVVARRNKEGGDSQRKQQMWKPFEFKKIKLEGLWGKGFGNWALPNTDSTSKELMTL
Nature of the experiment: two-hybrid.

For experiment [4], the target named is T4, NET4A-Cub (Arabidopsis thaliana) (UniProt F4KEW8).
T4 sequence: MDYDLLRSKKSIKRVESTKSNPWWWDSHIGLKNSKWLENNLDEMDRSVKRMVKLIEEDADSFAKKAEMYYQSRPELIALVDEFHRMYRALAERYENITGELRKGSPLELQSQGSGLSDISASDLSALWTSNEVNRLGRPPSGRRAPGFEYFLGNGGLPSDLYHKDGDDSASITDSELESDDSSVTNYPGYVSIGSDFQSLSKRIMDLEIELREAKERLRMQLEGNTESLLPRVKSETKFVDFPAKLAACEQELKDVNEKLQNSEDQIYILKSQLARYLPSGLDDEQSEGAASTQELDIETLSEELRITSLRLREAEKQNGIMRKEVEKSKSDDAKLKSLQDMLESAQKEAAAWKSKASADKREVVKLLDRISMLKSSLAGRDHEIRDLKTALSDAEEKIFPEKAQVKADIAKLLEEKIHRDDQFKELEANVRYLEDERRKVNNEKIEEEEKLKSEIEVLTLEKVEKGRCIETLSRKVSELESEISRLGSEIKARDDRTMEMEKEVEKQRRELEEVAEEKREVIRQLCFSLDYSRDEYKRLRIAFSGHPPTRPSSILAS
Nature of the experiment: two-hybrid.

The target in experiment [5] is T5, NET4A, rBiFC fusion (Arabidopsis thaliana) (UniProt F4KEW8).
T5 sequence: T4 sequence
Description: split reporter.

These are yes or no findings as the source states them, for the method shown. For some assays here: Binding seen in cells or lysates may run through a third protein. Some binding calls cover weakened binding; strength is not graded here. For some assays here: Where a sequence is shown, tags or fusion partners need not be part of it.

As for NubG-RABG3B (from UniProt O04157 1-203), the binding entry in experiment [1], in experiment [2], in experiment [3] and in experiment [4] was “binds” each time.

With “RABG3B, rBiFC fusion (from UniProt O04157 1-203)”, in experiment [5], the binding result is on record as “binds”.

B1: NubG-RABG3A (protein, UniProt Q948K8 1-206)
chain: MATRRRTLLKVIVLGDSGVGKTSLMNQYVHKKFSMQYKATIGADFVTKELQIGEKLVTLQIWDTAGQERFQSLGAAFYRGADCCALVYDVNVLRSFDNLETWHEEFLKQASPSDPKTFPFIVLGNKIDVDGGSSRVVSDKKAADWCASNGNIPYFETSAKDDFNVDEAFLTIAKTALANEHEQDIYFQGIPDAVTENEPKGGGCAC
With B1, the binding result in experiment [1], in experiment [2], in experiment [3] and in experiment [4] was “binds” in each case.

B2: RABG3A, rBiFC fusion (protein, UniProt Q948K8 1-206)
chain: B1 chain
For B2, the binding entry in experiment [5] is on record as “binds”.

B3: RABC1, mbSUS fusion (protein, UniProt O23657 1-212)
chain: MGSSSGQPEFDYLFKVLLIGDSGVGKSSLLLSFTSNTFDDLSPTIGVDFKVKYLTIGEKKLKLAIWDTAGQERFRTLTSSYYRGAQGIIMVYDVTRRDTFTNLSDIWAKEIDLYSTNQDCIKMLVGNKVDKESERAVSKKEGIDFAREYGCLFLECSAKTRVNVEQCFEELVLKILETPSLTAEGSSGGKKNIFKQNPAQTTSTSSSYCCSS
For B3, the binding result in experiment [4] is “binds”.

B4: RABC1, rBiFC fusion (protein, UniProt O23657 1-212)
chain: B3 chain
B4: the binding entry in experiment [5] was “binds”.

B5: NubG-VAP27-1 (protein, UniProt Q8VZ95 1-256)
chain: MSNIDLIGMSNRDLIGMSNSELLTVEPLDLQFPFELKKQISCSLYLTNKTDNNVAFKVKTTNPKKYCVRPNTGVVLPRSTCEVLVTMQAQKEAPSDMQCKDKFLLQGVIASPGVTAKEVTPEMFSKEAGHRVEETKLRVTYVAPPRPPSPVHEGSEEGSSPRASVSDNGHGSEFSFERFIVDNKAGHQENTSEARALITKLTEEKQSAIQLNNRLQRELDQLRRESKKSQSGGIPFMYVLLVGLIGLILGYIMKRT
B5: the binding result in experiment [2] and in experiment [4] was “binds” in each case.

Values taken from paper doi:10.1101/2023.09.29.560113.
